The results in this text go back to article PMC3448962 (Biochemical pharmacology, 2012).

The test system of the data set is human AGP. The data set is described as follows: Fluorometric probe displacement assay.

As a reminder, the Ki is the equilibrium dissociation constant of an inhibitor or competing ligand from its target. A higher Ki goes with weaker binding. Take `CN1C(=O)CN=C(c2ccccc2)c2cc(Cl)ccc21` [Diazepam]: where the note is “human, pH 7.4, Ki, displacement of ANS, probe ANS, 20°C, mean ± SE, n = 3 unless otherwise indicated, ND = not detected”, the affinity, expressed as Ki at 2 min, was 3.13 ± 0.06 µM. In addition, the “displacement of BODIPY-PL2 from AGP” value (probe BODIPY-PL2) is “able to compete with BODIPY-PL2”.
